Laboratory results: doi:10.1101/2025.10.30.685566

By UniProt entry, the sequences of proteins in these tests, tags left out.
UniProt Q9NQC7: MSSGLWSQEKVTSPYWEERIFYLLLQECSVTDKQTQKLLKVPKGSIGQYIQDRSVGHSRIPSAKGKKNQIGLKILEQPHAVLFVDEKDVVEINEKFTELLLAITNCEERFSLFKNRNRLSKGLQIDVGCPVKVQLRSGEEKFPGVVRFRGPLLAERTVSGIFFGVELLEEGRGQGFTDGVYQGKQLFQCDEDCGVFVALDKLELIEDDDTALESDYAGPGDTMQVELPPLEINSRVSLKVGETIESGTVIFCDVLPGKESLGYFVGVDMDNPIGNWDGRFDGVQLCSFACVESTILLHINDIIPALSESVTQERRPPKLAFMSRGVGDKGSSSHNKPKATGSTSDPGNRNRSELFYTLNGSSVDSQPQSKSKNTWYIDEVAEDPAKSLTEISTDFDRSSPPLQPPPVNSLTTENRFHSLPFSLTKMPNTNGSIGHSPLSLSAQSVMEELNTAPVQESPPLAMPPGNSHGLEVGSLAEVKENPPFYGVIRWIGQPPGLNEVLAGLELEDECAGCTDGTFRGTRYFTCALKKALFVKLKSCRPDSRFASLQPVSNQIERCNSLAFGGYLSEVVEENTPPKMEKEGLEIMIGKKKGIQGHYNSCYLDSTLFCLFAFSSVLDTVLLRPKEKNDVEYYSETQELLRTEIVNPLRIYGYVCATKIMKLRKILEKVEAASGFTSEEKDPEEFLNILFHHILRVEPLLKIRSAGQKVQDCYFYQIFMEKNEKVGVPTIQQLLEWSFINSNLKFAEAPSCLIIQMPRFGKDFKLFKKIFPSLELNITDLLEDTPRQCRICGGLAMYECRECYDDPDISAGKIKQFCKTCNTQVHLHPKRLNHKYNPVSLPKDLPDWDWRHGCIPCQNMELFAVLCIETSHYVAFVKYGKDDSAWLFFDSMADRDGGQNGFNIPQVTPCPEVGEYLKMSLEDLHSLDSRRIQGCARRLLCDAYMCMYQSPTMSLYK
UniProt Q13114: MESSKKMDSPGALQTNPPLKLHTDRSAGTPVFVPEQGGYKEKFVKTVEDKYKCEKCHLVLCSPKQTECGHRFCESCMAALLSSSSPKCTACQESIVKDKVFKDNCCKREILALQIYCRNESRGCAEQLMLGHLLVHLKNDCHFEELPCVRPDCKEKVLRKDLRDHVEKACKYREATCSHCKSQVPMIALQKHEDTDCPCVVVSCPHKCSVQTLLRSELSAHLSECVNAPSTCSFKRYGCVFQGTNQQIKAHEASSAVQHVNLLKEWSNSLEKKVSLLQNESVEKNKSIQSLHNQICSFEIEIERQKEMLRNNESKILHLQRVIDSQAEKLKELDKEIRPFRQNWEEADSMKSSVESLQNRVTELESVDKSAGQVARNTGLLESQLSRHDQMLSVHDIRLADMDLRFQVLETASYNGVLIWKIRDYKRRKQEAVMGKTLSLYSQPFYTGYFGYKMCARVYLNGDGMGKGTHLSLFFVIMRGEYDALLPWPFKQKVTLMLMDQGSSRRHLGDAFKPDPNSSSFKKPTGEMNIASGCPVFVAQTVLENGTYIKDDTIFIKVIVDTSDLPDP
UniProt Q8TEP8: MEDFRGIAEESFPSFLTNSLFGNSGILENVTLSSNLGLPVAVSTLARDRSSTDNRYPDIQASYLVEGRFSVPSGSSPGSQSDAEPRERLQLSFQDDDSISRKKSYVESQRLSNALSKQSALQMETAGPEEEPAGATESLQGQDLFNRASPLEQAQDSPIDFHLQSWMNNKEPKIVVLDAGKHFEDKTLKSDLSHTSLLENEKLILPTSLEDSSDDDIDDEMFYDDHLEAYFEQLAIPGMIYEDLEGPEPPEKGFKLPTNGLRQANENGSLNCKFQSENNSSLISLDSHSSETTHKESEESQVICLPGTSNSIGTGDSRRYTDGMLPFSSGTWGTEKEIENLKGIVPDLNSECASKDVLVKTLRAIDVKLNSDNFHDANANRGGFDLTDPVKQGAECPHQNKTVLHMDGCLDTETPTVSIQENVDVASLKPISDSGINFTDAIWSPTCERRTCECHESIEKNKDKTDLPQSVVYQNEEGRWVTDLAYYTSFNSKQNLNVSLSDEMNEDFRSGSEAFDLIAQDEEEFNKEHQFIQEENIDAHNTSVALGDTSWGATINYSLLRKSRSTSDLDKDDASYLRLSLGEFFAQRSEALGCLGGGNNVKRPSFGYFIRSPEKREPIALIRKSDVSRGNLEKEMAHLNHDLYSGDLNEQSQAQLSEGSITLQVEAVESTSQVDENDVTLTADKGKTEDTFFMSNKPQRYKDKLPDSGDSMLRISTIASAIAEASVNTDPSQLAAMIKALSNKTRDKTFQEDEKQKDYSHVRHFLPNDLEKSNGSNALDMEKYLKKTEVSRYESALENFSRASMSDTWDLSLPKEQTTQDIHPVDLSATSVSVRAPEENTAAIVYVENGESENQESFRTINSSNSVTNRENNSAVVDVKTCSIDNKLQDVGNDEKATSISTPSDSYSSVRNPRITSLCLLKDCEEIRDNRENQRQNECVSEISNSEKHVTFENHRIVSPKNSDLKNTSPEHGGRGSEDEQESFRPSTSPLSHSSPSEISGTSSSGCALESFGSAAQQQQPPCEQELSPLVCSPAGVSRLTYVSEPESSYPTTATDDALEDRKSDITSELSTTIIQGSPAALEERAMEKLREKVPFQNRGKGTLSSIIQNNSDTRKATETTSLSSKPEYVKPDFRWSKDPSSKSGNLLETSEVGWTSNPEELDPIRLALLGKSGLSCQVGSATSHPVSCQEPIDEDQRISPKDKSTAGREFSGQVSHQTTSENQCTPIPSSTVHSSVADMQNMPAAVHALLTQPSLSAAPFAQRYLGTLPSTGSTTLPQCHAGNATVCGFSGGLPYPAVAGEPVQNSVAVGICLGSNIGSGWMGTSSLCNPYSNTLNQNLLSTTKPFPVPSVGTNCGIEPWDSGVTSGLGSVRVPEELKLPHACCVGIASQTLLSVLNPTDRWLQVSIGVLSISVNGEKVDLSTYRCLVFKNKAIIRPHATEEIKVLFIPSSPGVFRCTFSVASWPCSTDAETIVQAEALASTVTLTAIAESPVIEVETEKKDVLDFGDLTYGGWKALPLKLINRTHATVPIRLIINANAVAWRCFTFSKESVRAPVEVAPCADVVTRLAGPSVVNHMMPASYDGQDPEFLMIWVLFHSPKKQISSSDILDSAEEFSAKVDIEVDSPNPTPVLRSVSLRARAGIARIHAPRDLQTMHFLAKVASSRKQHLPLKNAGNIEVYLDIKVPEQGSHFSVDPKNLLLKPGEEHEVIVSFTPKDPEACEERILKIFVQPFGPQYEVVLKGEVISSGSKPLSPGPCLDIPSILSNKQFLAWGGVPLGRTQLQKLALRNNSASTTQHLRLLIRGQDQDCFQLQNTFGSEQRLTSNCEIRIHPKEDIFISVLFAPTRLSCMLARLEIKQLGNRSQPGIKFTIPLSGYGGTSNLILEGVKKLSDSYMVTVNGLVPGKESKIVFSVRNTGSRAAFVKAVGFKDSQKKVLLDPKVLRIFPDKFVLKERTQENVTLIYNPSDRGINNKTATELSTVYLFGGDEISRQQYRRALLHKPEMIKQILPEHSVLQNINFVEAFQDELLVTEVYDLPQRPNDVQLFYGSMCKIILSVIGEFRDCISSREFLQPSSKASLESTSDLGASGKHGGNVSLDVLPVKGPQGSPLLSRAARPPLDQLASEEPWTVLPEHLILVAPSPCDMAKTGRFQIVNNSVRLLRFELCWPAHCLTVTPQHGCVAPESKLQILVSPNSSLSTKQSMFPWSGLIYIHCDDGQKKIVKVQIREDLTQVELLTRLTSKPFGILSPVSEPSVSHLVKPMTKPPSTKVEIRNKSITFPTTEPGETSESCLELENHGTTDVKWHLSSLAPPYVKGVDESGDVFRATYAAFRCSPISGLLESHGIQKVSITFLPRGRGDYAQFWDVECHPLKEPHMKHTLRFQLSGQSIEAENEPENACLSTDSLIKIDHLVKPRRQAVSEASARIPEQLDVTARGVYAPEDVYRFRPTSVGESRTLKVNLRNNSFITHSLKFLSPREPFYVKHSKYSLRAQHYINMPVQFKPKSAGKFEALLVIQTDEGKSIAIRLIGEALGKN
UniProt Q5T5P2: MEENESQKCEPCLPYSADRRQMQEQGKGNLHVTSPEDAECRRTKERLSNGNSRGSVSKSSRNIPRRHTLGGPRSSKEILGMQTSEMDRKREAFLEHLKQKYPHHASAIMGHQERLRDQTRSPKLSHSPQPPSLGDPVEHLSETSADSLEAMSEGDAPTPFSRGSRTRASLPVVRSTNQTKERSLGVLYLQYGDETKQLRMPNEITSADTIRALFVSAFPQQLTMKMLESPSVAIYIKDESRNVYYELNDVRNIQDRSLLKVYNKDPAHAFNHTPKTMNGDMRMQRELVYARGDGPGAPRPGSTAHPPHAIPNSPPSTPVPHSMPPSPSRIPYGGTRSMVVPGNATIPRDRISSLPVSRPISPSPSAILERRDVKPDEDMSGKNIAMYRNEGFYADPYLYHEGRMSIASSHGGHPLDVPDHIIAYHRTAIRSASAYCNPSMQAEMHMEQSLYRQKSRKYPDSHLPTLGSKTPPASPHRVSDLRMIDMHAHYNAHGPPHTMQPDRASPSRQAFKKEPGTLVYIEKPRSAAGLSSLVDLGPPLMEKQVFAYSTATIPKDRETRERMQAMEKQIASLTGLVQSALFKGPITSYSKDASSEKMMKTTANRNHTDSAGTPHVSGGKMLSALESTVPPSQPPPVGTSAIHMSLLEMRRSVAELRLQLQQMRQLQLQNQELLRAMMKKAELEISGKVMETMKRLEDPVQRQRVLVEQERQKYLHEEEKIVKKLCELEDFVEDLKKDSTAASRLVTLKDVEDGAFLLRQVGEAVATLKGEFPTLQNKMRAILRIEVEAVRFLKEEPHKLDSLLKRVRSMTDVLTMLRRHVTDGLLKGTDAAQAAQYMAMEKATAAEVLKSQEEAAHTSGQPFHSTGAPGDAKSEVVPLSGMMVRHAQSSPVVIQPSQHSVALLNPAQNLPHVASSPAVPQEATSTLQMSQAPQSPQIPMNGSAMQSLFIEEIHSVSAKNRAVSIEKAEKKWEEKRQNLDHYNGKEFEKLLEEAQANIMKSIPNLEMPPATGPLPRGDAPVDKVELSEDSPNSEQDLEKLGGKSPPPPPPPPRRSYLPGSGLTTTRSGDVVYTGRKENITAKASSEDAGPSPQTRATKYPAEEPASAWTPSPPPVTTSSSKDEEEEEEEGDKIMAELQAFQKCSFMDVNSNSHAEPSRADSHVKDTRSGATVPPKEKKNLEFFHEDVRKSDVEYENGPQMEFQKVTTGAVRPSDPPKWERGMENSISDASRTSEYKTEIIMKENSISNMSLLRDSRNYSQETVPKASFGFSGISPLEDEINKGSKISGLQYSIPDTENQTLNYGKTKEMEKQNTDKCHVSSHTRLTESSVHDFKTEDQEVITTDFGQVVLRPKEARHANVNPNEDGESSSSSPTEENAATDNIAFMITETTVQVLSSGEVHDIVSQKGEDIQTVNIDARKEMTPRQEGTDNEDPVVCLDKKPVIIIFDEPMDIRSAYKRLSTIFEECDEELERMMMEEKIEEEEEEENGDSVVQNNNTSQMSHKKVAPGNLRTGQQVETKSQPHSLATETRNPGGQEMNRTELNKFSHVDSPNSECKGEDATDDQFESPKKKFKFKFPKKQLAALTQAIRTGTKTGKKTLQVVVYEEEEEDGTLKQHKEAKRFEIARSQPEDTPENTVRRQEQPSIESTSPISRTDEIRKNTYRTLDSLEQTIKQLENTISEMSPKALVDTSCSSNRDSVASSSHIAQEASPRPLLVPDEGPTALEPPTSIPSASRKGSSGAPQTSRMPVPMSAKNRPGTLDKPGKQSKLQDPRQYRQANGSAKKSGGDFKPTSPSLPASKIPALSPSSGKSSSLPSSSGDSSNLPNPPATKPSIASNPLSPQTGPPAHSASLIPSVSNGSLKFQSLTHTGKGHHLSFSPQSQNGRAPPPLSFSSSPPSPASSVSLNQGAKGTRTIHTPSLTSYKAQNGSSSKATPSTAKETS

B1: SPATA2 (protein, UniProt Q9UM82 1-520)
chain: MGKPSSMDTKFKDDLFRKYVQFHESKVDTTTSRQRPGSDECLRVAASTLLSLHKVDPFYRFRLIQFYEVVESSLRSLSSSSLRALHGAFSMLETVGINLFLYPWKKEFRSIKTYTGPFVYYVKSTLLEEDIRAILSCMGYTPELGTAYKLRELVETLQVKMVSFELFLAKVECEQMLEIHSQVKDKGYSELDIVSERKSSAEDVRGCSDALRRRAEGREHLTASMSRVALQKSASERAAKDYYKPRVTKPSRSVDAYDSYWESRKPPLKASLSLRKEPVATDVGDDLKDEIIRPSPSLLTMASSPHGSPDVLPPASPSNGPALLRGTYFSTQDDVDLYTDSEPRATYRRQDALRPDVWLLRNDAHSLYHKRSPPAKESALSKCQSCGLSCSSSLCQRCDSLLTCPPASKPSAFPSKASTHDSLAHGASLREKYPGQTQGLDRLPHLHSKSKPSTTPTSRCGFCNRPGATNTCTQCSKVSCDACLSAYHYDPCYKKSELHKFMPNNQLNYKSTQLSHLVYR
B2: SPATA2L (protein, UniProt Q8IUW3 1-424)
chain: MGSSSLSEDYRQCLERELRRGRAGVCGDPSLRAVLWQILVEDFDLHGALQDDALALLTDGLWGRADLAPALRGLARAFELLELAAVHLYLLPWRKEFTTIKTFSGGYVHVLKGVLSDDLLLKSFQKMGYVRRDSHRLMVTALPPACQLVQVALGCFALRLECEILGEVLAQLGTSVLPAEELLQARRASGDVASCVAWLQQRLAQDEEPPPLPPRGSPAAYRAPLDLYRDLQEDEGSEDASLYGEPSPGPDSPPAELAYRPPLWEQSAKLWGTGGRAWEPPAEELPQASSPPYGALEEGLEPEPSAFSFLSLRRELSRPGDLATPESSAAASPRRIRAEGVPASAYRSVSEPPGYQAHSCLSPGALPTLCCDTCRQLHAAHCAALPACRPGHSLRVLLGDAQRRLWLQRAQMDTLLYNSPGARP
B3: SAS6 (protein, UniProt Q6UVJ0 1-657)
chain: MSQVLFHQLVPLQVKCKDCEERRVSIRMSIELQSVSNPVHRKDLVIRLTDDTDPFFLYNLVISEEDFQSLKFQQGLLVDFLAFPQKFIDLLQQCTQEHAKEIPRFLLQLVSPAAILDNSPAFLNVVETNPFKHLTHLSLKLLPGNDVEIKKFLAGCLKCSKEEKLSLMQSLDDATKQLDFTRKTLAEKKQELDKLRNEWASHTAALTNKHSQELTNEKEKALQAQVQYQQQHEQQKKDLEILHQQNIHQLQNRLSELEAANKDLTERKYKGDSTIRELKAKLSGVEEELQRTKQEVLSLRRENSTLDVECHEKEKHVNQLQTKVAVLEQEIKDKDQLVLRTKEAFDTIQEQKVVLEENGEKNQVQLGKLEATIKSLSAELLKANEIIKKLQGDLKTLMGKLKLKNTVTIQQEKLLAEKEEKLQKEQKELQDVGQSLRIKEQEVCKLQEQLEATVKKLEESKQLLKNNEKLITWLNKELNENQLVRKQDVLGPSTTPPAHSSSNTIRSGISPNLNVVDGRLTYPTCGIGYPVSSAFAFQNTFPHSISAKNTSHPGSGTKVQFNLQFTKPNASLGDVQSGATISMPCSTDKENGENVGLESKYLKKREDSIPLRGLSQNLFSNSDHQRDGTLGALHTSSKPTALPSASSAYFPGQLPNS
B4: HAUS3 (protein, UniProt Q68CZ6 1-603)
chain: MSCGNEFVETLKKIGYPKADNLNGEDFDWLFEGVEDESFLKWFCGNVNEQNVLSERELEAFSILQKSGKPILEGAALDEALKTCKTSDLKTPRLDDKELEKLEDEVQTLLKLKNLKIQRRNKCQLMASVTSHKSLRLNAKEEEATKKLKQSQGILNAMITKISNELQALTDEVTQLMMFFRHSNLGQGTNPLVFLSQFSLEKYLSQEEQSTAALTLYTKKQFFQGIHEVVESSNEDNFQLLDIQTPSICDNQEILEERRLEMARLQLAYICAQHQLIHLKASNSSMKSSIKWAEESLHSLTSKAVDKENLDAKISSLTSEIMKLEKEVTQIKDRSLPAVVRENAQLLNMPVVKGDFDLQIAKQDYYTARQELVLNQLIKQKASFELLQLSYEIELRKHRDIYRQLENLVQELSQSNMMLYKQLEMLTDPSVSQQINPRNTIDTKDYSTHRLYQVLEGENKKKELFLTHGNLEEVAEKLKQNISLVQDQLAVSAQEHSFFLSKRNKDVDMLCDTLYQGGNQLLLSDQELTEQFHKVESQLNKLNHLLTDILADVKTKRKTLANNKLHQMEREFYVYFLKDEDYLKDIVENLETQSKIKAVSLED

What follows are molecules tested against myc-BirA*-CYLD (UniProt Q9NQC7) (assay: proximity labelling).

binding, binds:
TRAF3 (from UniProt Q13114 1-568), CEP192 (from UniProt Q8TEP8 1-2537), KIAA1217 (endogenous) (from UniProt Q5T5P2 1-1943), B1, B2, B3, B4

These are yes or no findings as the source states them, for the method shown. Binding seen in cells or lysates may run through a third protein. A yes stands for co-enrichment or nearness to the bait. Other partners may have been found.
